# Library screening results

Data taken from ChEMBL document CHEMBL3988442, “University of Dundee, Small-Polar-MMV Screening Library” (2021).

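Whole-cell assay for inhibitors of Mycobacterium tuberculosis growth, labelled Cornell in the record; the read-out is not stated. The concentration is filed as 10 mM, unlikely as a test dose, so the dose is not known. Higher means stronger inhibition (inferred from two other growth screens of the library). About 53,000 compounds were tested under these conditions; 1.7% (about 900) showed 50% or more at least once.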

Values are the deposited “Percent Effect”, in %.
The controls that fix the scale are not given in the record; negative values are as filed.
This is an unselected part of the compounds tested.

SMILES,percent effect
CCc1ccc(C2COCCN2C(=O)Nc2cccc(C(C)=O)c2)o1 (centres undefined),3.463%
CC(C)N(CC(N)=O)Cc1csc(-c2ncccn2)n1,16.49%
COCCN1CCC2(CC1)CN(C(=O)c1cccs1)CCO2.O=C(O)C(F)(F)F,-53.59%
CCc1ccc(C(O)CN2CCN(c3cccc(OC)c3)CC2)cc1 (centres undefined),15.74%
Fc1cccc(-c2n[nH]cc2-c2nc(CN3CCOCC3)no2)c1,-17.02%
COc1cccc(S(=O)(=O)NC(=O)CCC2CCCC2)c1,12.89%
CCc1nc(CN(CC(N)=O)C(C)C)cs1,18.25%
CCOC(=O)C1CCCCN1Cc1c[nH]nc1-c1cc2ccccc2o1 (centres undefined),-0.3239%
O=C(O)C(F)(F)F.[H][C@]12CCC[C@@]1(COc1cccnc1)CN(S(=O)(=O)N(C)C)C2,15.7%
CC(C)c1cc(NC(=O)CN2CCC(N3CCNC3=O)CC2)on1,6.075%
COc1c(C)cnc(CN(C)C(=O)c2cccnc2N(C)C)c1C,-26.27%
CCCc1noc(CS(=O)(=O)CC(=O)NC(C)CCC)n1 (centres undefined),10.29%
CNC(=O)C1CN(Cc2cc(C)on2)CCN(C2CCOCC2)C1 (centres undefined),22.42%
Cl.O=C(CCN1CCCC1)Nc1c2c(cc3c1CCC3)CCC2,2.99%
COCC1CN(Cc2cnn(C)c2)Cc2nn(C)cc21.O=C(O)C(F)(F)F (centres undefined),4.793%
CNc1cc(C)nc(C2CCN(CCO)CC2)n1,5.734%
CC(C)C(=O)N1CCCC(Cc2ccccn2)C1 (centres undefined),2.772%
Cc1noc(C)c1CNCC1Cn2nncc2CO1.O=C(O)C(F)(F)F (centres undefined),-74.62%
COc1cncc(-n2ccnc2-c2ccc(C(=O)O)s2)c1,-2.306%
CCc1nc(CN2CCCC(NCc3nc4cccnc4[nH]3)C2)no1 (centres undefined),-21.44%
O=C(O)c1cn(CC2CCCN(c3ccc4ccccc4n3)C2)nn1 (centres undefined),-6.859%
CC(NC(N)=O)C(=O)N(C)Cc1cccc(C(F)(F)F)c1 (centres undefined),-23.45%
Cc1cc(C)c(C#N)c(NCCSc2nncn2C)n1,-10.96%
O=C(O)C(F)(F)F.[H][C@@]12CCN(Cc3cccs3)[C@]1([H])CC[C@@H](C(=O)N1CCCCO1)O2,19.71%
[H][C@@]12CC[C@H](Oc3ccccc3F)[C@]1([H])CN(C(=O)c1cnco1)C2,-8.997%
Cc1cc(C(=O)N2CCC3(CC2)CC(c2cccnc2)C(=O)N3C)no1.O=C(O)C(F)(F)F (centres undefined),-45.81%
Cc1ccc(S(=O)(=O)N2CCOc3ccccc32)cc1C(N)=O,-4.29%
CNS(=O)(=O)c1ccc(C(=O)N2CCCC2Cc2ccccc2)o1 (centres undefined),20.64%
Cn1ccnc1-c1cn(CCc2nnc(N)s2)nn1,-27.82%
CC1CC(=O)c2cnc3nc(N4CCOCC4)[nH]c(=O)c3c2C1 (centres undefined),26.22%
CC1CCCN(C(=O)Nc2ccc(F)c(C(N)=O)c2)C1 (centres undefined),-6.647%
O=C(NC1CCNC1)C1(N2CCCCC2)Cc2ccccc2C1 (centres undefined),13.12%
c1ccc(OCCN2CCC(c3cnccn3)CC2)cc1,-5.801%
Cc1noc(C)c1CN1CCc2c(CNc3nccs3)n[nH]c2C1.O=C(O)C(F)(F)F,17.35%
COc1ccc(CCN(C)C(=O)CN2C(=O)OC[C@@H]2C(C)C)cc1OC,-4.142%
COCCOCC1CCN(C(=O)c2ccc3[nH]cnc3c2)C1 (centres undefined),-15.16%
O=C(NCCn1ccnc1)N1CCN(c2nccs2)CC1,-3.95%
Cc1ccc(CN2CCS(=O)(=O)C(C)(C)C2)cc1C,-10.99%
O=C(c1c[nH]cn1)N1CCCn2c(nnc2Cn2cccc2)C1,3.278%
O=S(=O)(c1cc(F)cc(F)c1)N1CCC(Oc2ccc(Cl)cn2)CC1,10.38%
Cn1nc(COCC2CC2)c2c1CCN(C(=O)c1ccno1)C2,16.41%
COc1cccc(OCC(=O)Nc2cc(C)cnc2OC)c1,-5.238%
CCCn1c(C)c(CC(=O)NC)c2c1CC(C)(C)CC2=O,-55.75%
Cc1nc(CN)cc(NCc2ccccc2-n2cncn2)n1,-21.35%
Cn1ccc2c(C(=O)NCC3(C(N)=O)CCOCC3)cccc21,-49.11%
Cc1cc(C)n(CCCNC(=O)[C@@H](C)NC(=O)OC(C)(C)C)n1,5.302%
O=C(O)C(F)(F)F.O=C(O)C(F)(F)F.O=C(O)C(F)(F)F.[H][C@]12CCN(Cc3ccoc3)C[C@@]1([H])OCCN(Cc1cccnc1)C2,26.51%
Cc1cn(-c2ccccc2)nc1NS(=O)(=O)c1cc(C(=O)O)sc1C,18.81%
COCCN(Cc1ccccc1Cl)c1nc(CCN)nc2ccccc12,31.04%
CN(C)CCN(C)S(=O)(=O)Cc1ccc(Br)cc1,-44.94%
CCOCC1c2c(cnn2CC2CC2)CCN1C(=O)c1ccncn1.O=C(O)C(F)(F)F (centres undefined),-30.19%
Fc1cnc(N2CCCn3c(nnc3Cn3cccc3)C2)nc1.O=C(O)C(F)(F)F,-7.326%
CCc1cnc(CCNC(=O)N2CCCC(c3ncc[nH]3)C2)s1 (centres undefined),20.12%
O=C(O)C(F)(F)F.c1cc(C2CC2)n2cnc(C3CN(Cc4nccs4)CCO3)c2c1 (centres undefined),33.58%
CN1CC2(CCCN(Cc3ccc(Oc4ccccc4)cc3)C2)OC1=O (centres undefined),-10.43%
O=C(c1cccnc1-n1cncn1)N1CCN(c2ccccc2)CC1,-22.56%
CC(C)NC(=O)N1CCc2onc(C(=O)NCCN(C)C)c2C1.O=C(O)C(F)(F)F,13.05%
CC(C)(CCS(C)(=O)=O)CNC(=O)NC1CCCC1(C)C (centres undefined),11.62%
CC(Cn1cccn1)NCc1cccc(C#N)c1 (centres undefined),9.316%
CN(Cc1nccn1C)CC1CCOc2ccccc2C1 (centres undefined),-31.47%
[H][C@@]12CCN(Cc3cccs3)C[C@]1([H])[C@H](c1nc(C)no1)CCO2,-39.56%
CNC(=O)C1CN(C)CCN(C(=O)CCn2nnc3ccccc32)C1 (centres undefined),37.61%
COCC1CCCCN1C(=O)c1cc(Cn2ccc3ccccc32)[nH]n1 (centres undefined),31.32%
Cc1ccc(-c2csc3c(=O)[nH]c(N4CCCC(C(N)=O)C4)nc23)cc1 (centres undefined),-18.75%
Cc1nn(C)c2c(=O)n(CC(=O)NC3CCCCC3)ccc12,26.75%
CCn1nc(C)c2c1cnn2CCNS(=O)(=O)Cc1ccccc1,-30.01%
CCNC(=O)[C@@H]1C[C@@H](N)CN1Cc1ccc(Sc2ccc(C)cc2)o1,16.69%
COc1ccc(C(C)NCc2scnc2C)cc1Cn1cccn1 (centres undefined),-24.82%
Cc1ccc(N2C[C@H](O)[C@@H](N3CCN(c4ccccn4)CC3)C2)nn1,29.21%
O=C(O)C(F)(F)F.O=C1Nc2ccccc2C12CCN(c1nccs1)CC2,28.22%
CNS(=O)(=O)c1ccccc1N1CCN(C(C)C(=O)OC)CC1 (centres undefined),8.652%
CC(C)n1c2ccccc2c2c1cc(C(=O)O)n2C(=O)N(C)C,3.676%
O=C1NCC(C(=O)Nc2ccc(=O)n(Cc3ccccc3Cl)c2)N1 (centres undefined),3.69%
c1ccc2oc(N3CCCCC3Cn3cncn3)nc2c1 (centres undefined),0.7784%
F[C@@H]1CN(CC2CC2)C[C@@H]1OCc1nc2ccccc2[nH]1,-13.86%
Cn1cc(N2CC3(CCN(CC4CC4)CC3)OCC2=O)cn1.O=C(O)C(F)(F)F,35.72%
NC(=O)c1ccc2c(c1)nc1n2CCN(Cc2ccco2)C1,-54.99%
O=C(CC(F)(F)F)NC(c1ccc(Cl)cc1)c1ncon1 (centres undefined),23.77%
CC(C(=O)O)N1CC2(CCC1=O)CCN(C/C=C/c1ccccc1)CC2 (centres undefined),3.682%
COC(=O)CCC(=O)N1CCC2(CN(Cc3cccc(Cl)c3)C2)C1,-5.572%
O=C(c1ccccc1OC1CCCC1)N1CCCC(n2cncn2)C1 (centres undefined),-0.338%
CCOc1ccc(CNCCCn2ccnc2)cc1Cl.Cl.Cl,-5.814%
Cc1nn(C(C)C)c(C)c1NC(=O)c1cccnc1,-11.72%